Experimental findings from patent US20080096237A1 are described below.

Chains of the proteins cited; added tags and fusions are not shown.
UniProt P31750: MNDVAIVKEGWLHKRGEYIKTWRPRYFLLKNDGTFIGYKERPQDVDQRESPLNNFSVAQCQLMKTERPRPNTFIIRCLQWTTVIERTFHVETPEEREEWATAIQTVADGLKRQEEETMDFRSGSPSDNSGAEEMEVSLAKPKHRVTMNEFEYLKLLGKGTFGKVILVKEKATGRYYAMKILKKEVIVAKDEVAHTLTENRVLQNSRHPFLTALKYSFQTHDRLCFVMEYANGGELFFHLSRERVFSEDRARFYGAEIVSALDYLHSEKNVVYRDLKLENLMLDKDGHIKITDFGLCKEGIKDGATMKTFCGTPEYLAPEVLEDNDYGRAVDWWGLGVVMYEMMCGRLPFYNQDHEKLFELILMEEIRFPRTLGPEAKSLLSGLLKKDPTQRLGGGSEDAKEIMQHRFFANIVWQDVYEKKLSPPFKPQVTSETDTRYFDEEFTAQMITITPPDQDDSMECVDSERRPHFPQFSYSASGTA

Results are given in words; binding and its absence hold for the method and conditions named. Binding seen in cells or lysates may run through a third protein. Some entries that bind do so weakly or less than the wild type. Where a sequence is shown, tags or fusion partners need not be part of it.

This assay deals with Akt (in mouse heart extracts) (mouse) (UniProt P31750). The assay can be described thus: co-immunoprecipitation with the hemagglutinin antibody.

B1: transgenic H11 kinase carrying a hemagglutinin tag (cardiac-specific transgenic mouse) (enzyme)
chain: MADGQMPFSCHYPSRLRRDPFRDSPLSSRLLDDGFGMDPFPDDLTASWPDWALPRLSSAWPGTLRSGMVPRGPTATARFGVPAEGRTPPPFPGEPWKVCVNVHSFKPEELMVKTKDGYVEVSGKHEEKQQEGGIVSKNFTKKIQLPAEVDPVTVFASLSPEGLLIIEAPQVPPYSTFGESSFNNELPQDSQEVTCT
For the molecule B1, the binding entry is reported as “binds”.
